Reference: patent US12522631B2, “Compounds for use in the treatment of liver disease” (The Provost, Fellows, Foundation Scholars, And The Other …, priority 2019, dated 2026)

Legend:
[1] = system: HUH-7 cells; assay: MTT cell viability assay, HUH-7 cells treated with DCA; type: cell-based; conditions: 10 μM; 24 h before DCA 200 μM, then co-treated 24 h (FIG. 14b)
From the text: The difference between the observed cell viability in each of the assays is a consequence of the different properties measured in each assay. The alamarBlue™ assay uses resazurin-based reagents that function as cell health indicators by using the reducing power of living cells to quantitatively measure viability. Upon entering living cells, resazurin is reduced to resorufin, a compound that is red in color and highly fluorescent. The MTT assay is a colorimetric assay for assessing cell metabolic activity. NAD(P)H-dependent cellular oxidoreductase enzymes may, under defined conditions, reflect the number of viable cells present.

[2] = system: HFD-F mice; assay: Mouse model of hepatic steatosis (HFD-F); type: in vivo, Male C57BL/6J strain mice
[3] = circulating transaminase activity (FIG. 13)
[4] = final 2 weeks of the 28 week experiment

C[C@H](CCC(=O)O)[C@H]1CC[C@H]2[C@@H]3[C@@H](NS(C)(=O)=O)C[C@@H]4C[C@H](O)CC[C@]4(C)[C@H]3CC[C@]12C [Compound 21, 3α-hydroxy-7β-(methanesulfonamido)-5β-cholanoate]
cell viability (MTT) [1]: approximately 75%
visceral fat as a percentage of body weight ([2]; 30 mg/kg intraperitoneally daily, last two weeks (FIG. 10a)): no reduction in visceral fat was observed
overall body weight ([2]; 30 mg/kg intraperitoneally daily, last two weeks of 28 weeks HFD-F, data not shown): reduction in overall body weight compared with vehicle
liver weight as a percentage of body weight ([2]; 30 mg/kg intraperitoneally daily, last two weeks, vs UDCA and vehicle (FIG. 10b)): significant reduction in liver weight
steatosis in H&E liver sections ([2]; 14 d treatment, vs UDCA and vehicle (FIG. 11)): reduced evidence of steatosis and associated liver damage
ALT [2, 3]: reduction in ALT
AST:ALT ratio [2, 3]: reduction
total NASH score ([2]; composite histopathological score (FIG. 12)): significant reduction in total NASH score
circulating transaminases [2, 4]: significant reduction in circulating transaminases
histopathologically evident steatohepatitis [2, 4]: significant reduction in histopathologically evident steatohepatitis
